{"sequences": {"note": "By UniProt entry, the sequences of proteins in these tests, tags left out. Where a name states a change or a piece, a line headed by the entry shows the natural chain unless it says otherwise.", "UniProt P19438": "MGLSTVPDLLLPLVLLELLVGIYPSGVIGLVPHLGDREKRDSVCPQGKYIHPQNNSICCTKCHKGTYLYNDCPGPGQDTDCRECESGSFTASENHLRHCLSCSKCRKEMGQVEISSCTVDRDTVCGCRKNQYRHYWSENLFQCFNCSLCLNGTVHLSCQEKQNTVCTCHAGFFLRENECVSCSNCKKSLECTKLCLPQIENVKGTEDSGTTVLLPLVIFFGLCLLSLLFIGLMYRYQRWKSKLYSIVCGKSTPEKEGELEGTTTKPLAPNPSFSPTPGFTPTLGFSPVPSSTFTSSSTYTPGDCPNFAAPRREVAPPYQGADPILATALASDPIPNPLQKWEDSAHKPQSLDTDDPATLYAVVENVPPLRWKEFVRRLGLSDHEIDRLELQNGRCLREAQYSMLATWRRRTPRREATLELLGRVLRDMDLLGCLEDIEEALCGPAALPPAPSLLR"}, "source": "patent US20200299396A1", "key": {"[1]": {"molecular_target": "Recombinant human TNFR1-Fc fusion protein (human) (UniProt P19438)", "test": "ELISA on coated human TNFR1-Fc, n=3"}, "[2]": {"molecular_target": "Recombinant human TNFR1-Fc fusion protein (human) (UniProt P19438)", "test": "ELISA under equilibrium conditions, TNFR1-Fc coated; control"}}, "note": "Results are given in words; binding and its absence hold for the method and conditions named. Some entries that bind do so weakly or less than the wild type.", "data": [{"binder": "Fab 13.7 (Fab, V domains shown) VH: HVQLVQSGAEVKKPGSSVKVSCKASGYTFTDFYINWVRQAPGQGLEWIGEIVPSQGEAKYNDKFKARVTITADKSTSTAYMELSSLRSEDTAVYYCARWDFLDYWGQGTTVTVSS VL: DVQMTQSPSSLSASVGDRVTITCRSSQSLLHSNGNTYLHWYQQKPGKAPKLLIYTVSNRFSGVPSRFSGSGSGTDFTLTISSLQPEDFATYYCSQSTHVPYTFGGGTKVEIKR", "values": [{"measurement": "binding", "setting": "[1]", "value": "binds"}, {"measurement": "binding", "setting": "[2]", "value": "binds"}]}]}
